PMC10709064, “The leucine zipper domain of the transcriptional repressor Opi1 underlies a signal transduction mechanism regulating lipid synthesis” (The Journal of Biological Chemistry, 2023)
Substitutions are numbered along the chain they refer to. Names may count otherwise. Results are given in words; binding and its absence hold for the method and conditions named. Sequences can lack the tags named with a protein. Blank lines part the entries; values can stand above or below the binder they belong to.

What was measured:
[1] = target: T1, GST-N-Opi1^WT (glutathione-S-transferase fused to Opi1 aa1-190) (S. cerevisiae) (UniProt P21957); assay: pull-down; around 0.5 ug bait on amylose resin or glutathione-Sepharose with 1.5 ug prey of the alternate tag in 100 ul binding buffer (20 mM Tris-HCl pH 8, 150 mM NaCl, 1 mM EDTA, 1 mM DTT, 20% glycerol, 0.05% Triton X-100) with 50 ug/ml BSA, 2 h at 4 C; bait eluted with its ligand, prey detected by Western blot against MBP or GST; both purified
T1 sequence: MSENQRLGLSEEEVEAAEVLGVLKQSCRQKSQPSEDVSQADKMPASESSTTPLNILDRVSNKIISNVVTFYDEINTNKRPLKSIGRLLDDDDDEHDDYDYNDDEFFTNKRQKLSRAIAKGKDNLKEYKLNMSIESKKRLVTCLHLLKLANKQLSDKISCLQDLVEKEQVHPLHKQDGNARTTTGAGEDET

[2] = target: T2, GST-C-Opi1^WT (glutathione-S-transferase fused to Opi1 aa291-404) (S. cerevisiae) (UniProt P21957); assay: as above
T2 sequence: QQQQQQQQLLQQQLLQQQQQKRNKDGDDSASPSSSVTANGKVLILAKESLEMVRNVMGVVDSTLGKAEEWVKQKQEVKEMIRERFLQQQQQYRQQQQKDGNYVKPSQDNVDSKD

[3] = target: T3, GST-M-Opi1 (glutathione-S-transferase fused to Opi1 aa191-290) (S. cerevisiae) (UniProt P21957); assay: as above
T3 sequence: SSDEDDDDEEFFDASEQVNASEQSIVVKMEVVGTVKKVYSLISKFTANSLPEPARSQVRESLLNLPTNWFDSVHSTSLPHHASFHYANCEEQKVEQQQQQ

[4] = target: T4, MBP-N-Opi1^WT (maltose-binding protein fused to the N-terminal Opi1^1-190 polypeptide) (S. cerevisiae) (UniProt P21957); assay: as above
T4 sequence: T1 sequence

[5] = target: T5, MBP-C-Opi1^WT (maltose-binding protein fused to Opi1 aa291-404) (S. cerevisiae) (UniProt P21957); assay: as above
T5 sequence: T2 sequence

MBP-N-Opi1^N150D = target: T6, MBP-N-Opi1^N150D (S. cerevisiae, UniProt P21957 1-190, N150D); assay: SEC; 0.5 mg of affinity-purified MBP fusion on Superdex 200 Increase 10/300 GL, 20 mM Tris-HCl pH 7.4, 150 mM NaCl, 0.5 ml/min; molecular weights estimated from calibration markers; both purified
T6 construct: Opi1, S. cerevisiae, N terminus from aa1 to aa190 (N-Opi1) with N150D; pMAL-c expression vector; amplified from mutant OPI1 DNA template; source: for SEC further run on Superdex 200 Increase; not shown: MBP, N-terminal, kept
T6 sequence (looked up): T1 sequence with N150D

B1: MBP-M-Opi1 (maltose-binding protein fused to Opi1 aa191-290) (domain or fragment, UniProt P21957 191-290)
chain: T3 sequence
binding [1]: no binding (tested: 1.5 μg of prey protein in 100 μl)
binding [2]: no binding (tested: 1.5 μg of prey protein in 100 μl)
binding [3]: no binding (tested: 1.5 μg of prey protein in 100 μl)

B2: GST-M-Opi1 (glutathione-S-transferase fused to Opi1 aa191-290) (domain or fragment, UniProt P21957 191-290)
chain: T3 sequence
binding [4]: no binding (tested: 1.5 μg of prey protein in 100 μl)
binding [5]: no binding (tested: 1.5 μg of prey protein in 100 μl)

binding (MBP-N-Opi1^N150D): no binding (tested: 0.5 mg loaded)
B3: MBP-N-Opi1^N150D (domain or fragment, UniProt P21957 1-190)
chain: T1 sequence with N150D
